At least one structure is not confirmed: it was looked up by name or label, or the drawing left a doubt.
What was measured:
[1] = system: rat liver perfused with norepinephrine solution; assay: Perfused rat liver: intrahepatic constriction induced by norepinephrine, infusion of tested compound; format: in vivo; settings: 500% increase determined by NE infusion; NO-urso p<0.001
Description: At the end of the treatment (fourth week) the animals were anaesthetized with urethane and then systemic pressure (MAP) and portal pressure (PP) were monitored by catheterisation both of the carotid and portal vein. The animal liver was then continuously perfused with Krebs solution (40 ml/min) balanced with O2/CO2 (95%-5%) using a peristaltic pump (Gilson) In this way the pharmacological effect of both tested compounds has been evaluated. The rat liver was then firstly perfused with norepinephrine solution (1 μM) in order to induce an intrahepatic circulation constriction. Afterwards, in groups 2 and 3 a single infusion with a 1 mM solution of each of the tested compounds was carried out and portal pressure variations have been monitored.

[2] = system: Wistar rats subjected to ligature of bile duct; assay: Hepatic fibrosis evaluated by an immunocytochemical method in bile duct ligated rats; format: in vivo, rat; settings: a week treatment in bile duct ligated rats
Excerpt: Twenty one Wistar rats were divided in three groups of 7 animals each and then subjected to ligature of bile duct. Within three weeks following the ligature, the animals were left on rest. As a consequence of the bile duct ligature, the animals developed dysfunctions of the hepatic and portal venous circulation. At the end of the third week, each group underwent the following weekly treatment protocol: • Group 1: control group treated with carrier (1% w/v water suspension of carboxymethylcellulose); • Group 2: treated with NO-urso at a dose of 28 mg/kg (0.04 mmol/kg), twice a day; • Group 3: treated with ursodeoxycholic acid (urso in table) at a dose of 15 mg/kg (0,04 mmol/kg), twice a day.

Compound: C[C@H](CCC(=O)O)[C@H]1CC[C@H]2[C@@H]3[C@@H](O)C[C@@H]4C[C@H](O)CC[C@]4(C)[C@H]3CC[C@]12C [Urso, ursodeoxycholic acid]
- increase of intrahepatic resistance induced by norepinephrine [1]: not
- influence on hepatic fibrosis [2]: do not influence

Source: patent US20060094664A1, “Deoxycholic acid derivatives for the treatment of acute dysfunctions of portal and hepatic venous circulation” (priority 2002, published 2006)
